Measurements published in publication PMC12914539.

Protein sequences, listed by entry. Tags and fused reporters are not part of them. Residues count along the entry.
UniProt Q61527, residues 26-1308: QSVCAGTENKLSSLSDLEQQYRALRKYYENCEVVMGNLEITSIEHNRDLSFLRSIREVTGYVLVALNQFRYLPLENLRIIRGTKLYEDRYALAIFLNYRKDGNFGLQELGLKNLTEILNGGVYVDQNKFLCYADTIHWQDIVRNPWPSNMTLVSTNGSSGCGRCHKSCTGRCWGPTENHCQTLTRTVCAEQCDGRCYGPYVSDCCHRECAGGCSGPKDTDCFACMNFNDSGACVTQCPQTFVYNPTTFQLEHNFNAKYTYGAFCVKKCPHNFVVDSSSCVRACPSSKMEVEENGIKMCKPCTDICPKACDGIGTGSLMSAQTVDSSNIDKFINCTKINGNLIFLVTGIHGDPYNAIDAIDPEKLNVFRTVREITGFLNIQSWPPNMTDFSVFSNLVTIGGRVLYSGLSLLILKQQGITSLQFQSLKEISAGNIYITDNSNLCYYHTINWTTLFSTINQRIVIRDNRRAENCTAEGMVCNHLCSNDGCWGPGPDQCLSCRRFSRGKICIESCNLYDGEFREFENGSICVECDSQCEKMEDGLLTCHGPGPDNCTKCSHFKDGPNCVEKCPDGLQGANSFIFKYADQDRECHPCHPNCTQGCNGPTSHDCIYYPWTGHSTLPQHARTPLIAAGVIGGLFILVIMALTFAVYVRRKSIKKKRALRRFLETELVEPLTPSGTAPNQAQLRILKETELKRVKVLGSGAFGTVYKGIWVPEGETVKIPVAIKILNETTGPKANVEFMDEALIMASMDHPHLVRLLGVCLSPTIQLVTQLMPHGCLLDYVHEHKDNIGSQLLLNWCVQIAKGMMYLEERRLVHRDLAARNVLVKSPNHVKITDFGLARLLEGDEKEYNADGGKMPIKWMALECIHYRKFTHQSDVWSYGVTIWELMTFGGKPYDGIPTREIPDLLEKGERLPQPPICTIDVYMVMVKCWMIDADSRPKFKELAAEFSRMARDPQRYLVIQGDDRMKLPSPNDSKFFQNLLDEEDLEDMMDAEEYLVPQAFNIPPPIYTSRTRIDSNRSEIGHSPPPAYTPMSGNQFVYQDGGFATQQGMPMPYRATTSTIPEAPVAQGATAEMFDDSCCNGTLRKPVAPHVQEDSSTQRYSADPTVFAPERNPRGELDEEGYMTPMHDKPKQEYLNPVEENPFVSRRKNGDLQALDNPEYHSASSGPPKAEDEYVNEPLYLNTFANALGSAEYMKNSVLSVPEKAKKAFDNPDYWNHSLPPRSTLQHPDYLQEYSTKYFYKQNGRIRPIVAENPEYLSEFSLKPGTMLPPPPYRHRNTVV
UniProt P97807, residues 42-507: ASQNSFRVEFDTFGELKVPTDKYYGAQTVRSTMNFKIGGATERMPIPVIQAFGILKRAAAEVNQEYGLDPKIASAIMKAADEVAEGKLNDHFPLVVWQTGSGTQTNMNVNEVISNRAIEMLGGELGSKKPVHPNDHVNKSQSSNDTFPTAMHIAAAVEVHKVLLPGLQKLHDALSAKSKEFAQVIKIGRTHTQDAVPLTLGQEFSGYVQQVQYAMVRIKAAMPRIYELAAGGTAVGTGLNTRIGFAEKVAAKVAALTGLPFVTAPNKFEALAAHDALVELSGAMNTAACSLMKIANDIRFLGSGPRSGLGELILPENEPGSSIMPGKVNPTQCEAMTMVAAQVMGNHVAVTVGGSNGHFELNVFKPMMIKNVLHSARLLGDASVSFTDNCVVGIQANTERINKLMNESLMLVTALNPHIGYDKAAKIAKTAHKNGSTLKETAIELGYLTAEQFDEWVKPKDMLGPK
UniProt P46938: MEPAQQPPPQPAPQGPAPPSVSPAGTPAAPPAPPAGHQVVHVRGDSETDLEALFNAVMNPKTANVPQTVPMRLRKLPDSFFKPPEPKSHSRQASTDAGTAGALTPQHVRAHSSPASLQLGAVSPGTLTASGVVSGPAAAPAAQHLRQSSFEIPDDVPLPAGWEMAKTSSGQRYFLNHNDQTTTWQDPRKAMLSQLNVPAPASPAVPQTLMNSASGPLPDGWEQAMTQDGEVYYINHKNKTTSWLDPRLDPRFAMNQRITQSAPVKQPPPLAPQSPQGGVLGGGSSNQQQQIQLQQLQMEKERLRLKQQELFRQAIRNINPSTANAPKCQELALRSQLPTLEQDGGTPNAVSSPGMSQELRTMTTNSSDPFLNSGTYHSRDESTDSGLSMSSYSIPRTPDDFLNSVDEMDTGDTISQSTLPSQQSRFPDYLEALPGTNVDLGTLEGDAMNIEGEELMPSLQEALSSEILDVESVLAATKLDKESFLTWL

B1: Ywhag (protein, UniProt P61982 1-247)
chain: MVDREQLVQKARLAEQAERYDDMAAAMKNVTELNEPLSNEERNLLSVAYKNVVGARRSSWRVISSIEQKTSADGNEKKIEMVRAYREKIEKELEAVCQDVLSLLDNYLIKNCSETQYESKVFYLKMKGDYYRYLAEVATGEKRATVVESSEKAYSEAHEISKEHMQPTHPIRLGLALNYSVFYYEIQNAPEQACHLAKTAFDDAIAELDTLNEDSYKDSTLIMQLLRDNLTLWTSDQQDDDGGEGNN

target: Erb-B2 receptor tyrosine kinase 4 (ERBB4) (mouse (endogenous in 4T1)) (UniProt Q61527); experiment: affinity purification with mass spectrometry; co-immunoprecipitation with an ERBB4 antibody in 4T1 cells, silver staining, LC/MS of specific bands; with or without rNRG4 for 24 h

binding, binds:
Fh (from UniProt P97807 42-507)
Yap1 (from UniProt P46938 1-488)
B1

These are yes or no findings as the source states them, for the method shown. In cells and extracts the contact can be indirect. Here binding means that the protein was enriched with, or labelled near, the bait; the list need not be complete.
